# Tested on: Akt
# Assay: Western blot of Akt phosphorylation (T308, S473) in CHO GLUT4 cells
# Format: cell-based, Chinese Hamster
# Conditions: calculated from Akt p-S473 % basal, FIG. 6B; for ratio r′ (Akt activity of agonist insulin vs compound) / ratio r″ (Akt activity of compound vs agonist insulin and basal): insulin as Aktagonist
# Protocol: L6 myotubes (FIG. 5) and CHO GLUT4 cells (FIG. 6) in 12-well plates were used for western blotting. Cells were serum-starved overnight before experiment. Immunoblotting was performed as previously described (Nevzorova et al. 2006, […] et al. 2011, Nevzorova et al. 2002). Primary antibodies (Akt, phospho-Akt T308, phospho-Akt S473, AS 160, GLUT4, phospho-mTOR […], phospho-mTOR […], raptor, and rictor diluted 1:1000) were all from Cell Signaling Technology, Inc and were detected using a secondary antibody (horseradish peroxidase-linked anti-rabbit IgG, from Cell Signaling Technology, Inc) diluted 1:2000 and measured using enhanced chemiluminescence (ECL, Amersham Biosciences).
Molecule,ratio r (Akt activity of compound vs reference),ratio r′ (Akt activity of agonist insulin vs compound),ratio r″ (Akt activity of compound vs agonist insulin and basal)
"Br.CS(=O)(=O)Nc1c(O)ccc2c1CCCC2C1=NCCN1 (stereo not drawn) [A61603, N-[5-(4,5-dihydro-1H-imidazol-2yl)-2-hydroxy-5,6,7,8-tetrahydronaphthalen-1-yl] methanesulfonamide hydrobromide]",0.35,0.2,0.5
NC[C@H](O)c1ccc(O)c(O)c1 [noradrenaline],0.3,0.2,0.4
Cc1cc(C(C)(C)C)c(O)c(C)c1CC1=NCCN1 [oxymetazoline],0.35,0.2,0.5
insulin,0.7,0,1
